These results are taken from patent EP0515796A1, “5-Aminoacyl-5,10-dihydro-11H-dibenzo(b,e)(1,4)diazepin-11-ones, processes for their preparation, and their use as medicaments” (ARZNEIMITTELWERK DRESDEN GmbH, priority 1991, dated 1992).

A short description of the series: in vivo. The conditions noted are these: rat, therapeutic breadth, rat LD50 / rat CaCl2-arrhythmia ED50, read-out: Q LD50/ED50. From the text: Die Verbindungen der allgemeinen Formel I zeigen bei intravenöser Anwendung an Ratten eine bessere Verträglichkeit als ihre Referenzpräparate.

Regarding `CCN(CC)CC(=O)Nc1c(C)cccc1C` [Lidokain], the selectivity ratio amounted to 5.8.
